Paper PMC8125067

Protein sequences, listed by entry. Tags and fused reporters are not part of them.
UniProt Q9UHD2: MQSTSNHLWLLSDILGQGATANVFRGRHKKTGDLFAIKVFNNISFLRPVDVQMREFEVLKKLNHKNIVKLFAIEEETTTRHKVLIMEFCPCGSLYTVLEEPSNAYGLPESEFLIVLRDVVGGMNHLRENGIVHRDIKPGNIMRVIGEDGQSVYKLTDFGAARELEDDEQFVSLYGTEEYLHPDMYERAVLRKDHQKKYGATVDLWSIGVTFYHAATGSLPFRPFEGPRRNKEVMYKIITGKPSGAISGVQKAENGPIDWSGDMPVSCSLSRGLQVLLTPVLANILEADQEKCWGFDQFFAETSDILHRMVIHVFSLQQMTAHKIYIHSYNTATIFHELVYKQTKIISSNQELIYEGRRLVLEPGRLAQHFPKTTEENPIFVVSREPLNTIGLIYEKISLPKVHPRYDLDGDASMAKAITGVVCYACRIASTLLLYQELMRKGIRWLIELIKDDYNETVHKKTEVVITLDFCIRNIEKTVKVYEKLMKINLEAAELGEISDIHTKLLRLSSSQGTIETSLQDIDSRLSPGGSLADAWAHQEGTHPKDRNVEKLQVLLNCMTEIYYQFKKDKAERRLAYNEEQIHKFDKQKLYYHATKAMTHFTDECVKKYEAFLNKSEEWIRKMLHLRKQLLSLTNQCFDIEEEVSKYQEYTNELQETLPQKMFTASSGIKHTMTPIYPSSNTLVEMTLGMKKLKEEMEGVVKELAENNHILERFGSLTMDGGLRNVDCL

What was measured:
[1] = target: Flag-TRAF3 (TNF receptor-associated factor 3, amplified from DF-1 cells) (chicken (amplified from DF-1 cells)); test: co-IP; HEK293T co-transfected 48 h with a Flag-tagged bait and a Myc-tagged prey (in some panels with HA-UbK33, HA-UbK33R or HA-UbK11); NP-40 lysis buffer with PMSF; anti-Flag mouse MAb and protein A/G PLUS-agarose, 4°C, 4 h; blots with anti-Flag and anti-Myc rabbit PAbs
[2] = target: Flag-TRAF3 (TNF receptor-associated factor 3, amplified from DF-1 cells) (chicken (amplified from DF-1 cells)); test: co-IP; HEK293T co-transfected 48 h with Flag-TRAF3 and Myc-TBK1 along with an empty vector or a vector expressing VP3 (or VP3△CC1, with HA-UbK33); anti-Flag mouse MAb; blots with anti-Flag and anti-Myc rabbit PAbs

Myc-TBK1 (from UniProt Q9UHD2 1-729)
binding [1]: binds
binding [2]: binds

Results are given in words; binding and its absence hold for the method and conditions named. Binding seen in cells or lysates may run through a third protein. Binding can be weak; no strength is given.
